Reference: patent publication US4761404A, “Phospholipid analogs useful as PAF synthesis inhibitors” (Merck & Co., Inc., priority 1985, dated 1988)
At least one structure is not confirmed: it was looked up by name or label, or the drawing left a doubt.

Test system: PAF biosynthesis
Assay: PAF biosynthesis inhibition (rat spleen microsomes, [3H]acetyl CoA / lyso PAF)
Format: biochemical
Settings: 10 μM, incubation 5-8 minutes
Method: (1) Product PAF was estimated after reaction by liquid scintillation counting of the dried chloroform phase.
(2) [^3 H]Acetyl Co A was used in place of [^14 C],
(3) Incubation (i.e., reaction) times were generally within the range of 5-8 minutes.
(4) Concentrations used were in 1 ml of reaction mixture as follows:
Rat spleen microisomes: 50-150 μg

SMILES: CCCCCCCCCCCCCCCCOCC(C)(O)COP(=O)([O-])OCC[N+](C)(C)C (stereo not shown) [Example 12, 3-O-Hexadecyl-2-methylglycero-1-phosphorylcholine]
- % I (percent inhibition), PAF biosynthesis inhibition: 73%
